Over roughly 33,000 sequences, “E-score (-0.5 to 0.5)” has its median near -0.0059; the highest 2% begin near 0.26. The list shows a part of the results.

The target of this experiment is T1, Cin5 (UniProt P40917).
T1 sequence: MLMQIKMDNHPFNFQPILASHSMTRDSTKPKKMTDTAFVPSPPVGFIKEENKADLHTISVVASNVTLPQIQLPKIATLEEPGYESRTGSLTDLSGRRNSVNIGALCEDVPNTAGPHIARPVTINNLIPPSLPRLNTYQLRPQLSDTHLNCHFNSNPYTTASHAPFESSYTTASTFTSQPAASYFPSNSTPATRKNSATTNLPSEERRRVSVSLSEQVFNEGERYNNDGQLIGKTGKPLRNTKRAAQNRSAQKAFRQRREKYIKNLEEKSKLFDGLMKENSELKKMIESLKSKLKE
Briefly: PBM E-score (8-mer binding enrichment) (E-score (-0.5 to 0.5)); higher = stronger / more preferred TF binding. The conditions noted are these: protein concentration: 100 nM; construct: GST-full length. In short, it runs like this:
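GST-tagged yeast TFs (full-length or DNA-binding domain) were made by PURExpress in vitro transcription/translation and applied at about 100-200 nM to universal all-10-mer Agilent arrays. The arrays were made double-stranded by primer extension, on fresh or once-stripped slides. Bound protein was detected with fluorescent anti-GST, and scans were normalised with masliner. Each ungapped eight-base word, pooled with its reverse complement, received an E-score (modified Wilcoxon-Mann-Whitney statistic) from the Universal PBM Analysis Suite.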
For CAGGTGAA, the “PBM E-score” value came to 0.0518.
As to CCAGCGAA, the “PBM E-score” value was -0.0947.
On to GGTCACCA, for which the “PBM E-score” value was -0.374.
The value for CCGTACTC was -0.0636; that for CTATCGAG was -0.0192.
Consider CTGTGTAC, for which the “PBM E-score” value is 0.0881.
For ACCAACAT, the “PBM E-score” value was 0.221.
For the sequence CGTGGGGC, the “PBM E-score” value was -0.0803.
For the sequence AAGCTAAT, the “PBM E-score” value came out at 0.0739.
As for AGTTATCG, the “PBM E-score” value is 0.146.
With GCCGCCTA, the “PBM E-score” value was -0.101.
In the case of CGTTACGA, the “PBM E-score” value was -0.0231.
With GGTTCTGA, the “PBM E-score” value is -0.02.
In the case of GCATGCGA, the “PBM E-score” value was found to be 0.231.
The result for GCCGTGAC reads -0.0205.
Turning to TGATAAAA, the “PBM E-score” value worked out at 0.0968.
The result for GATTTCAA reads 0.129; that for AGCCACCT, -0.192; that for GGCTACCA, -0.249.
Take ATAGGACG: the “PBM E-score” value was determined as 0.00471.
The value for ATGATTAG was 0.223; that for TAAAAGTA was 0.152; that for AATCAAGA was 0.123.
The value for ATGGCCCA was -0.0223.
For the sequence CCCCTCCC, the “PBM E-score” value is -0.148.
The result for ATCTTGAG reads 0.061.
With CAGGGCGA, the “PBM E-score” value was -0.0306.
Consider GGGACGAA, for which the “PBM E-score” value was -0.145.
The value for CGTGACAA was 0.0719.
The result for CTTCCCGA reads 0.0791.
As for GGAGATAC, the “PBM E-score” value was -0.0893.
In the case of AACGCATT, the “PBM E-score” value worked out at 0.0649.
As to ACTGACCG, the “PBM E-score” value is -0.144.
For CATCTTGA, the “PBM E-score” value was -0.0532.
On to GGATGGTA, for which the “PBM E-score” value turned out to be 0.119.
GGACATTA: the “PBM E-score” value came out at 0.142.
Take ACGTAACC: the “PBM E-score” value turned out to be 0.262.
The value for CCCGGTGA was -0.171.
For the sequence CAATGATG, the “PBM E-score” value was 0.0678.
As for AGTCATCA, the “PBM E-score” value amounted to 0.169.
With ATCGACTC, the “PBM E-score” value was -0.0516.
In the case of CGTCGCAG, the “PBM E-score” value is -0.11.
With AGCCCAAC, the “PBM E-score” value was -0.00666.
On to ATTTATGG, for which the “PBM E-score” value is 0.048.
Consider CTGCCTAA, for which the “PBM E-score” value is -0.0566.
With GGAACAGA, the “PBM E-score” value turned out to be 0.107.
The value for CTCAGGTC was -0.0887; that for CACTTGCC was 0.0168.
On to GCCACCAC, for which the “PBM E-score” value was -0.28.
As to CTCAACCC, the “PBM E-score” value is -0.15.
With CATGACCC, the “PBM E-score” value is -0.0452.
In the case of CGTTTTCC, the “PBM E-score” value was -0.0272.
In the case of TCTTTGCA, the “PBM E-score” value stood at 0.0622.
As to AAGCGTGC, the “PBM E-score” value was 0.0828.
With CATGTAGC, the “PBM E-score” value was -0.0321.
Regarding CCGCAGAA, the “PBM E-score” value is 0.129.
With GCATACGA, the “PBM E-score” value was -0.0648.
For the sequence ATGACCCG, the “PBM E-score” value was -0.217.
CAGCTCCG: the “PBM E-score” value was -0.0242.
With CTCTAACC, the “PBM E-score” value is -0.12.
The value for TAAGCCTA was 0.207; that for AACTATAA was 0.195.
For the sequence CTTCTAAC, the “PBM E-score” value is -0.192.
For the sequence CGCGCACG, the “PBM E-score” value was found to be 0.00472.
For the sequence GACATGAA, the “PBM E-score” value turned out to be 0.0409.
With CGCTTTCA, the “PBM E-score” value turned out to be 0.03.
The result for CTACAAGA reads -0.0387.
The result for CGTCTGTC reads -0.0348.
AATACTCG: the “PBM E-score” value was 0.228.
As to GATGGACC, the “PBM E-score” value worked out at 0.167.
CGACGCAC: the “PBM E-score” value is -3e-05.
Take GTTCTCAA: the “PBM E-score” value was 0.0545.
In the case of AGCCTATG, the “PBM E-score” value was -0.182.
On to ACTACAAG, for which the “PBM E-score” value was -0.109.
In the case of ACTTCGCG, the “PBM E-score” value worked out at 0.111.
GGACTTCA: the “PBM E-score” value was -0.101.
The value for CGTAGCAG was -0.0986; that for ACTTGGCA was -0.174.
As for GAGTGCCC, the “PBM E-score” value was -0.165.
With GGTTCACA, the “PBM E-score” value was -0.117.
As to TAAGTTGA, the “PBM E-score” value was 0.102.
As to ACAGTCAC, the “PBM E-score” value is -0.242.
For CCCAGAGC, the “PBM E-score” value is -0.217.
Turning to GGCATACA, the “PBM E-score” value is 0.0581.
With CAGGCGTA, the “PBM E-score” value was -0.0347.
Regarding ACTTCCCT, the “PBM E-score” value is 0.0843.

The record behind these values is the supplement of paper PMC3334620.
